Some of the results follow.
Key:
Assay in all cases: log2 fold change, soluble protein after heating vs DMSO (PISA); higher = thermal stabilisation; K562 cells, 10 uM, 30 min; active = over 0.2 and 3.5 SD of the protein, either way, in both replicates (recomputed)
[1] = compound: C1=CC=C(C=C1)[C@H](COC2=CC3=C(C=C2)NC(=O)N3)NC(=O)C4=CC=CN(C4=O)CC5=CC(=C(C=C5)F)F
In short: (§1)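 For each measurement, 10 μM compound was applied for 30 min to K562 cells at 2×10^6 cells/mL. Aliquots were heated for 3 min across 48°C-58°C, pooled, and extracted in PBS with 0.5% NP-40 at 4°C; the supernatant after 21,000xg for 90 min was soluble protein. This was quantified by TMTpro 16plex LC-MS/MS with channel sums equalised, and thermal stability was reported relative to control samples from duplicates, on a log2 fold-change scale.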

The chains behind the UniProt entries cited, without tags or fusion partners. Where a name states a change or a piece, a line headed by the entry shows the natural chain unless it says otherwise.
UniProt O43768: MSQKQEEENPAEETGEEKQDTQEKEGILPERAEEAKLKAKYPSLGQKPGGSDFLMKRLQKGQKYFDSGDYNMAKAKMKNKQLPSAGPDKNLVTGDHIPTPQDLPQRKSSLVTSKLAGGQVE
UniProt P60842, whole entry, looked up: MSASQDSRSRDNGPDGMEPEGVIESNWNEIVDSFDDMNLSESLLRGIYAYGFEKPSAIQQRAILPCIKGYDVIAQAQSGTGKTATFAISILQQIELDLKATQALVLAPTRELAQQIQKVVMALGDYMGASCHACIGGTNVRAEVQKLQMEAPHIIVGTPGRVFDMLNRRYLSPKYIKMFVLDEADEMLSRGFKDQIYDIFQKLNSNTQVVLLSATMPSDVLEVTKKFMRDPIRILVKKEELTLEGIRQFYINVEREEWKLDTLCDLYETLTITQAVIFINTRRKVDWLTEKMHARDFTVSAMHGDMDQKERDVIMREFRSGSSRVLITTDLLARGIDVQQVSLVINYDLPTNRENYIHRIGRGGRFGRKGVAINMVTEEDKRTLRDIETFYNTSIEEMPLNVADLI
UniProt Q9NZN4: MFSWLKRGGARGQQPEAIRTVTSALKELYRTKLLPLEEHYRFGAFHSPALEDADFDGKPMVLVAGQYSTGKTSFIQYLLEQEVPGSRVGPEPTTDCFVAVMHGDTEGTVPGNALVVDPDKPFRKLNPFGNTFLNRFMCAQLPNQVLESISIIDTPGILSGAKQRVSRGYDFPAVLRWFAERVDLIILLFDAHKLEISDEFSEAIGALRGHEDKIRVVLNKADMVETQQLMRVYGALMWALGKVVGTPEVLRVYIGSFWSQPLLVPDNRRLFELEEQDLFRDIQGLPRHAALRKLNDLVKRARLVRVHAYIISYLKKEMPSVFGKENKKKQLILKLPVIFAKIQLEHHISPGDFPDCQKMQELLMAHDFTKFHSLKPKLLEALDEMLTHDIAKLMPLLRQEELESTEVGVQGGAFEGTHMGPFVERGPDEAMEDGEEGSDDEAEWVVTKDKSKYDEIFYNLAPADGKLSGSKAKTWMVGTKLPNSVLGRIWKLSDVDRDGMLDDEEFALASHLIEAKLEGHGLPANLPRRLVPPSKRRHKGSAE
UniProt P29692: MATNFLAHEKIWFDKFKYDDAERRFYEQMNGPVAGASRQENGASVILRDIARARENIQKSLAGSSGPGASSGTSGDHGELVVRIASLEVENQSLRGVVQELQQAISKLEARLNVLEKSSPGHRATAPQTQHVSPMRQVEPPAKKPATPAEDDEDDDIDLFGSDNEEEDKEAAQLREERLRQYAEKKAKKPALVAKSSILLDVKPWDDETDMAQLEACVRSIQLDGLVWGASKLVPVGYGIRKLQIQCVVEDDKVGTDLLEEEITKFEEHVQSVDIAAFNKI
UniProt P41091, whole entry, looked up: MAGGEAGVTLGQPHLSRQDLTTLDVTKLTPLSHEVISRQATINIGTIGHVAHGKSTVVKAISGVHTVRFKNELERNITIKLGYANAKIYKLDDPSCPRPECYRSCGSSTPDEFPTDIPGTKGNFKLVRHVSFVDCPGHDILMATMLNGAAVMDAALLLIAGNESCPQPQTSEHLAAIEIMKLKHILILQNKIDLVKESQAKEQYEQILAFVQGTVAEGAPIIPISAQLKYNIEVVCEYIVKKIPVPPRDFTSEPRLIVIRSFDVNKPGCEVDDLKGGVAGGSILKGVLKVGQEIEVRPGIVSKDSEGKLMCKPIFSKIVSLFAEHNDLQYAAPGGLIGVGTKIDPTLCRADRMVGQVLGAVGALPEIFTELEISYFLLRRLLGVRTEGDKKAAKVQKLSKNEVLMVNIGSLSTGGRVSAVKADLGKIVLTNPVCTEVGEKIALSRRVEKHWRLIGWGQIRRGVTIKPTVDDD
UniProt Q5JPI9: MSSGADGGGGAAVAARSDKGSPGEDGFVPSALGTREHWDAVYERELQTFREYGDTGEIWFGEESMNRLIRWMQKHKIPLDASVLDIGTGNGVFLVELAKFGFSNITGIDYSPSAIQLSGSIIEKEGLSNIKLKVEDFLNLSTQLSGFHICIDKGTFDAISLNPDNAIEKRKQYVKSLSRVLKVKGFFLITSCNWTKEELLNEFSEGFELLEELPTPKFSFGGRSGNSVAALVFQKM
UniProt P50402: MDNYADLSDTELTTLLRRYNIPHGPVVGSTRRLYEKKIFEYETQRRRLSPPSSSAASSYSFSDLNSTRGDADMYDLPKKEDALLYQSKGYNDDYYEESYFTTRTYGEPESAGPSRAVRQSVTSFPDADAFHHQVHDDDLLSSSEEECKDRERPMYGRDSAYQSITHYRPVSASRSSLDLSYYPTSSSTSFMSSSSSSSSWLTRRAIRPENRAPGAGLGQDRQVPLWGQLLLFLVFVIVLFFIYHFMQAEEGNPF
UniProt P0DPD8: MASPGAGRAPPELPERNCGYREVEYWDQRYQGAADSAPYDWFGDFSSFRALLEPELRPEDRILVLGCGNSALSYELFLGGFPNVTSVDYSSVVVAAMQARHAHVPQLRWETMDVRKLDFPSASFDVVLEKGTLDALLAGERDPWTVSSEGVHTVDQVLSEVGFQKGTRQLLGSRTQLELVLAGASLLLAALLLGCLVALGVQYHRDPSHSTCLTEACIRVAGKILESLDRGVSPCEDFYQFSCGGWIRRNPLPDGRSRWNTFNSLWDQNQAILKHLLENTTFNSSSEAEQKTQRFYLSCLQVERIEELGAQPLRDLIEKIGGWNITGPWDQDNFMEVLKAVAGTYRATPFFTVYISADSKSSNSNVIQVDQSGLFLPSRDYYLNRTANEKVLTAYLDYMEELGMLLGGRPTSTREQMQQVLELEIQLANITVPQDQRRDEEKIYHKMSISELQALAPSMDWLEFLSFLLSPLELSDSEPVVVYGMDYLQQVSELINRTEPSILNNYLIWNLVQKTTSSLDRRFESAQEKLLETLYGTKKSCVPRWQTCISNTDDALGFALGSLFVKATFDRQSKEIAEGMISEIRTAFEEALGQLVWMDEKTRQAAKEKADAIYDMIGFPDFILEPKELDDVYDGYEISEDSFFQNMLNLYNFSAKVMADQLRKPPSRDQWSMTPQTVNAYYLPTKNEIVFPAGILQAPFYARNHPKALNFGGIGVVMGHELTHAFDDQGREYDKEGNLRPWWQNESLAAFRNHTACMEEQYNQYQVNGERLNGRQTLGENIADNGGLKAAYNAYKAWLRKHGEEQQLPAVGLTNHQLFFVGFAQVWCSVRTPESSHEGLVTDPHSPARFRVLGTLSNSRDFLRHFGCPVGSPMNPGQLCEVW
UniProt Q9BW60: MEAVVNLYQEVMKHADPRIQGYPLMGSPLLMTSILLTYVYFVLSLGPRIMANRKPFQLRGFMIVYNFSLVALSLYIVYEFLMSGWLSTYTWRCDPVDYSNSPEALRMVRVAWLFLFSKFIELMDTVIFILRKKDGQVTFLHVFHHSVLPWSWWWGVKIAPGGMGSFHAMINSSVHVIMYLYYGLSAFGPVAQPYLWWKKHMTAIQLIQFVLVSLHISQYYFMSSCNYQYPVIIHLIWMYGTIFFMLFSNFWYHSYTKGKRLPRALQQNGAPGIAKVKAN
UniProt Q9P0I2: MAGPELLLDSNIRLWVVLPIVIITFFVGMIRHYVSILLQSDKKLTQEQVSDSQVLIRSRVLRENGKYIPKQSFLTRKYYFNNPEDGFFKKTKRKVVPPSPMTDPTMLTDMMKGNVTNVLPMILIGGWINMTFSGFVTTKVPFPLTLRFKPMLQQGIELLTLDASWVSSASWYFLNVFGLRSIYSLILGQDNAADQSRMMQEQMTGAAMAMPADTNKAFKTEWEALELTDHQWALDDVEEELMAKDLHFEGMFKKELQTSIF
UniProt Q13542: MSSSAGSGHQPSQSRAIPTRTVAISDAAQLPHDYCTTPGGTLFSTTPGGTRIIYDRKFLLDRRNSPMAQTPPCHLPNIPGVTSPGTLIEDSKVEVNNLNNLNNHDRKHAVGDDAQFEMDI
UniProt Q53HC9: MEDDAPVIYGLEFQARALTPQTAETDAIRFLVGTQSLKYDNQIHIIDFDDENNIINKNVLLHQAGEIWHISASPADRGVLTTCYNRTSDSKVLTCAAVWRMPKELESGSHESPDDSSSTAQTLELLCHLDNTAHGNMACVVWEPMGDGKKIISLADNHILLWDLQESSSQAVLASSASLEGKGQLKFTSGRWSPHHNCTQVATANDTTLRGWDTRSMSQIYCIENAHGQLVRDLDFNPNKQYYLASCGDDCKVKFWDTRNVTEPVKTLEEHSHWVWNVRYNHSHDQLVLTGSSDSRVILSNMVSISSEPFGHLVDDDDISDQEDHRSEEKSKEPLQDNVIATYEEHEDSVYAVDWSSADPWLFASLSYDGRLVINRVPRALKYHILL
UniProt Q96EB1: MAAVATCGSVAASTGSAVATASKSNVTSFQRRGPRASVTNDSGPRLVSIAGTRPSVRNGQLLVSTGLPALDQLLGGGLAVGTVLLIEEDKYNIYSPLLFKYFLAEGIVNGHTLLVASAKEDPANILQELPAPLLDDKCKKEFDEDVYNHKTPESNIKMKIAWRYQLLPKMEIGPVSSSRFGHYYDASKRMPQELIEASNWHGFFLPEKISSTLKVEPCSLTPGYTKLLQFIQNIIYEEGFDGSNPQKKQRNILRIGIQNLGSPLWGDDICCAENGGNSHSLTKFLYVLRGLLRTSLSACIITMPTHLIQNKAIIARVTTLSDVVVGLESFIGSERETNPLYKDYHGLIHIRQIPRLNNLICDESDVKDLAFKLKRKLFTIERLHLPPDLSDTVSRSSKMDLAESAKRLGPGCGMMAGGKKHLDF
UniProt P98172: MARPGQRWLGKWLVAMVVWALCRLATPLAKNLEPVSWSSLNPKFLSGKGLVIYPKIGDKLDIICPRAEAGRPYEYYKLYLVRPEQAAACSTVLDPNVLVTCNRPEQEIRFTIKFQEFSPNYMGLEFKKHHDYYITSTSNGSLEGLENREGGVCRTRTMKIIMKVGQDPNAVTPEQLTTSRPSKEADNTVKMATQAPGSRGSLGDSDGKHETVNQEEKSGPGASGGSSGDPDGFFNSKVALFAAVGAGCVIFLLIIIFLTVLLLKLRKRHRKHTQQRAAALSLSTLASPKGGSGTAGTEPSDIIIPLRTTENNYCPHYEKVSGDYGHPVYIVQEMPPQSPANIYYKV
UniProt Q9BV81: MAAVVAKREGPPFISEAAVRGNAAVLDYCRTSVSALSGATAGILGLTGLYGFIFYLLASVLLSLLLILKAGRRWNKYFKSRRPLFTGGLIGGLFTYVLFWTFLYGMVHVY
UniProt Q9UI10, whole entry, looked up: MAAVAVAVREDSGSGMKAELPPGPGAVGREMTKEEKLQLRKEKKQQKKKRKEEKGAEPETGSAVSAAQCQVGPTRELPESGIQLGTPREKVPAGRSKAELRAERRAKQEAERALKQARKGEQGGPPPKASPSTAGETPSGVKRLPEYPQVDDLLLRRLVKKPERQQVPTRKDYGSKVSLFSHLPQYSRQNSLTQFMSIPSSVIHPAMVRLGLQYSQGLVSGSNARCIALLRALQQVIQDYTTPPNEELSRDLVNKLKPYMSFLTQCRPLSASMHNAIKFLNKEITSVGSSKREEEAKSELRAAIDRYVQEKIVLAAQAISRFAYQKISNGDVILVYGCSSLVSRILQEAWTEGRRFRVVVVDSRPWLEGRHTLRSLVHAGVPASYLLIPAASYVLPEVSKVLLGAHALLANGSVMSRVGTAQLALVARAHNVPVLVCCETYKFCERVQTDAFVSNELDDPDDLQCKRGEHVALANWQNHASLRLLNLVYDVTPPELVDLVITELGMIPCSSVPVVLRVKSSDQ
UniProt Q9H9T3: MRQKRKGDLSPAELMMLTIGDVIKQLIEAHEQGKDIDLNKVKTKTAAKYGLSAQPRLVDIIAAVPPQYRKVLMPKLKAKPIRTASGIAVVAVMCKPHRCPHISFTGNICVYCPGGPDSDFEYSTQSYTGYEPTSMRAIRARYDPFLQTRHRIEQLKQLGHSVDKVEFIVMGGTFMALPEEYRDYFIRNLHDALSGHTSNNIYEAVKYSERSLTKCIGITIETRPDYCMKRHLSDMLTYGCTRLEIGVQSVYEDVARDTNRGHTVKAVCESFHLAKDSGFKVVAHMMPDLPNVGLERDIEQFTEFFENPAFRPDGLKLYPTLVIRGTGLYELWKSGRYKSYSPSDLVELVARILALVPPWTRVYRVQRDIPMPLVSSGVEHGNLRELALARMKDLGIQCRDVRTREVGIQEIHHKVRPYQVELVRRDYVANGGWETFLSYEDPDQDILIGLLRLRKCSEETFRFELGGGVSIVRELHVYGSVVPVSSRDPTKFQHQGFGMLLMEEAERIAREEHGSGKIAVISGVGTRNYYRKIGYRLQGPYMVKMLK
UniProt P24534: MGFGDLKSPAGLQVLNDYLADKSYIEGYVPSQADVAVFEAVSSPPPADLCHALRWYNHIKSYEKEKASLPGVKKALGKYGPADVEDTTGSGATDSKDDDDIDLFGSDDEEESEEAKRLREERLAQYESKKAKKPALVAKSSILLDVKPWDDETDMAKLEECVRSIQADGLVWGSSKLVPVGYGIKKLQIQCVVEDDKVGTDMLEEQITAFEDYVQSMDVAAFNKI

[2] = compound: CC1=C(SC2=C1C(=N[C@H](C3=NN=C(N32)C)CC(=O)N)C4=CC=C(C=C4)Cl)C
In short: as §1

[3] = compound: CC1=C2C(=CC=C1)N=C(N(C2=O)C3=CC=CC=C3C)CN4C=NC5=C(N=CN=C54)N
In short: as §1

[4] = compound: Cc1sc2c(c1C)C(c1ccc(Cl)cc1)=N[C@@H](CC(=O)OC(C)(C)C)c1nnc(C)n1-2
In short: as §1

[5] = compound: c1ccc([C@@H]2C[C@H]2NC2CCNCC2)cc1
In short: as §1

Measured: log2 fold change

ENSA isoform 3 (UniProt O43768)
inactive: [1] 0 | [2] -0.01 | [3] -0.032 | [4] 0.001 | [5] 0.011

ENPP2 isoform 2 (UniProt Q13822)
inactive: [1] 0.05

EIF4H (UniProt Q15056)
inactive: [1] -0.035 | [2] 0.021 | [3] 0.014 | [4] 0 | [5] 0.006

EIF4A1 (UniProt P60842)
inactive: [1] -0.043 | [2] 0.096 | [3] 0.05 | [4] -0.005 | [5] -0.042

EHD2 (UniProt Q9NZN4)
inactive: [1] -0.018 | [2] 0.049 | [3] 0.022 | [4] -0.019 | [5] -0.049

EIF3B isoform 2 (UniProt P55884)
inactive: [1] -0.049 | [2] -0.042 | [3] 0.013 | [4] 0.083 | [5] -0.022

EEF1D isoform 2 (UniProt P29692)
inactive: [1] -0.031 | [2] 0.003 | [3] 0.073 | [4] 0.012 | [5] -0.011

EIF2S3 (UniProt P41091)
inactive: [1] 0.008 | [2] -0.023 | [3] -0.017 | [4] 0.054 | [5] -0.002

EEF1AKMT2 (UniProt Q5JPI9)
inactive: [1] 0.196

EIF2D (UniProt P41214)
inactive: [1] -0.127 | [2] 0.012 | [3] 0.131 | [4] 0.08 | [5] -0.049

EMD (UniProt P50402)
inactive: [1] 0.016 | [2] 0.022 | [3] 0.059 | [4] 0.058 | [5] 0.031

EEF1AKMT4-ECE2 (UniProt P0DPD8)
inactive: [1] 0.197

ELOVL6 (UniProt Q9H5J4)
inactive: [1] -0.005 | [2] 0.024 | [3] 0.054 | [4] -0.134 | [5] -0.028

ELP1 (UniProt O95163)
inactive: [1] 0.013 | [2] 0.043 | [3] 0.035 | [4] -0.023 | [5] 0

ELOVL1 (UniProt Q9BW60)
inactive: [1] -0.16 | [2] 0.145 | [3] 0.045 | [4] -0.134 | [5] -0.05

EMC3 (UniProt Q9P0I2)
inactive: [1] -0.003 | [2] 0.06 | [3] 0.038 | [4] -0.037 | [5] -0.029

EIF4EBP2 (UniProt Q13542)
inactive: [1] -0.022 | [2] 0.159 | [3] -0.077 | [4] -0.14 | [5] 0.081

EMC2 (UniProt Q15006)
inactive: [1] -0.003 | [2] 0.033 | [3] 0.015 | [4] -0.077 | [5] 0.004

EIPR1 (UniProt Q53HC9)
inactive: [1] -0.048 | [2] 0.055 | [3] 0.055 | [4] -0.022 | [5] 0.026

ELP4 isoform 3 (UniProt Q96EB1)
inactive: [1] 0.02 | [2] 0.002 | [3] 0.013 | [4] 0.004 | [5] 0.022

EEF1AKNMT (UniProt Q8N6R0)
inactive: [1] -0.146 | [2] 0.049 | [3] 0.121 | [4] 0.028 | [5] -0.063

EFNB1 (UniProt P98172)
inactive: [1] -0.019 | [2] 0.027 | [3] 0.04 | [4] 0.003 | [5] 0.08

EMC6 (UniProt Q9BV81)
inactive: [1] -0.002 | [2] 0.061 | [3] 0.073 | [4] -0.216 | [5] -0.012

EIF2B4 (UniProt Q9UI10)
inactive: [1] 0.069 | [2] 0.046 | [3] 0.039 | [4] 0.009 | [5] -0.013

ELP3 (UniProt Q9H9T3)
inactive: [1] 0.011 | [2] 0.042 | [3] 0.009 | [4] -0.051 | [5] -0.024

EEF1B2 (UniProt P24534)
inactive: [1] -0.037 | [2] -0.002 | [3] 0.036 | [4] 0.026 | [5] -0.034
